Consider two molecules from paper doi:10.1101/150805.

Results are given in words; binding and its absence hold for the method and conditions named. Binding seen in cells or lysates may run through a third protein. A result given as binding can be weak or reduced; the word gives no strength.

The assay deals with LUC7A-YFP (LETHAL UNLESS CBC 7 A, AthLUC7A) (Arabidopsis thaliana). The assay is described as follows: co-IP.

B1: SERRATE (SE) (protein, UniProt Q9ZVD0 1-720)
chain: MADVNLPPSDSVDNRLPEKSTSSSPPPPPPSSSLPQQEQEQDQQQLPLRRERDSRERRDERDIERPPPNRRERDRSPLPPPRRDYKRRPSLSPPPPYRDRRHSPPQRRSPPQKRYRRDDNGYDGRRGSPRGGYGPPDRRFGYDHGGGYDREMGGRPGYGDERPHGRFMGRYQDWEGGRGGYGDASNSGNPQRDGLMSYKQFIQELEDDILPSEAERRYQEYKSEYITTQKRAFFNTHKEEDWLKNKYHPTNLLSVIERRNDLAQKVAKDFLLDLQSGTLDLGPAVTALNKSGRTSEPNSEDEAAGVGKRKRHGMGGAKENELLSAAPKAPSFTSDPKRILTDVEQTQALVRKLDSEKKIEENVLQGSETEKSGREKLHSGSTGPVVIIRGLTSVKGLEGVELLDTLVTYLWRVHGLDYYGKVETNEAKGLRHVRAEGKVSDAKGDENESKFDSHWQERLKGQDPLEVMAAKEKIDAAATEALDPHVRKIRDEKYGWKYGCGAKGCTKLFHAAEFVYKHLKLKHTELVTELTTKVREELYFQNYMNDPNAPGGQPATQQSGPRDRPIRRKPSMENRLRDDRGGRRERDGRANGNDRNDRSEDQQRGDNDGGNPGEVGYDAFGGQGGVHVPPFLSDINPPPMLMPVPGAGPLGPFVPAPPEVAMQMFRDPSGPNPPFEGSGRGGPAPFLLSPAFRQDPRRLRSYQDLDAPEEEVTVIDYRSL
Regarding B1, the binding entry is given as “binds”.

B2: ABH1/CBP80 (protein, UniProt Q9SIU2 1-848)
chain: MSNWKTLLLRIGEKGPEYGTSSDYKDHIETCFGVIRREIERSGDQVLPFLLQCAEQLPHKIPLYGTLIGLLNLENEDFVQKLVESVHANFQVALDSGNCNSIRILLRFMTSLLCSKVIQPASLIVVFETLLSSAATTVDEEKGNPSWQPQADFYVICILSSLPWGGSELAEQVPDEIERVLVGIQAYLSIRKNSSTSGLNFFHNGEFESSLAEKDFVEDLLDRIQSLASNGWKLESVPRPHLSFEAQLVAGKFHELRPIKCMEQPSPPSDHSRAYSGKQKHDALTRYPQRIRRLNIFPANKMEDVQPIDRFVVEEYLLDVLFYLNGCRKECASYMANLPVTFRYEYLMAETLFSQILLLPQPPFKTLYYTLVIMDLCKALPGAFPAVVAGAVRALFEKISDLDMESRTRLILWFSHHLSNFQFIWPWEEWAFVLDLPKWAPKRVFVQEILQREVRLSYWDKIKQSIENATALEELLPPKAGPNFMYSLEEGKEKTEEQQLSAELSRKVKEKQTARDMIVWIEETIYPVHGFEVTLTIVVQTLLDIGSKSFTHLVTVLERYGQVFSKLCPDNDKQVMLLSQVSTYWKNNVQMTAVAIDRMMGYRLVSNQAIVRWVFSPENVDQFHVSDQPWEILGNALNKTYNRISDLRKDISNITKNVLVAEKASANARVELEAAESKLSLVEGEPVLGENPAKMKRLKSTVEKTGEAELSLRESLEAKEALLNRALSETEVLLLLLFQSFLGVLKERLPDPTKVRSVQDLKSIGAEDDKPSAMDVDSENGNPKKSCEVGEREQWCLSTLGYLTAFTRQYASEIWPHMEKLESEVFSGEDVHPLFLQAISSALQFPLH
For the molecule B2, the binding entry is listed as “binds”.
